{
  "source": "paper PMC4946998",
  "about": "(Journal of cellular physiology, 2016)",
  "key": {"[1]": {"system": "Myeloperoxidase (MPO) activity", "details": "CM"}, "[2]": {"system": "MMP-1 immunoreactivity; Gr-1+ cells", "details": "WT mice, CM, topical Dex; not in MMP-8KO"}, "MMP-8 mRNA transcripts": {"system": "MMP-8 mRNA transcripts", "type": "in vivo", "details": "WT (B6) mice, topical 0.1% Dex QID, naïve control as calibrator"}},
  "note": "Like-named read-outs stand apart in the source and are kept apart here.",
  "data": [
    {"smiles": "C[C@@H]1C[C@H]2[C@@H]3CCC4=CC(=O)C=C[C@]4(C)[C@@]3(F)[C@@H](O)C[C@]2(C)[C@@]1(O)C(=O)CO", "note": "[Dex, Dexamethasone]", "values": [
      {"measurement": "MPO activity versus BSS", "setting": "[1]; MMP-8KO mice, topical Dex, still significantly higher than WT Dex treated", "value": "significantly decreased MPO activity"},
      {"measurement": "MPO activity in whole cornea lysates", "setting": "[1]; WT mice, topical Dex (BSS 9.4 mU)", "value": 5.1, "unit": "mU"},
      {"measurement": "MMP-1 immunoreactivity by corneal epithelium", "setting": "[2]", "value": "decreased MMP-1 immunoreactivity"},
      {"measurement": "relative fold of MMP-8 gene expression in whole cornea (mean±SEM)", "setting": "MMP-8 mRNA transcripts; CM 2D", "value": "2033.69±0.50", "unit": "fold"},
      {"measurement": "relative fold of MMP-8 gene expression in whole cornea (mean±SEM)", "setting": "MMP-8 mRNA transcripts; CM 5D", "value": "319.55±0.55", "unit": "fold"}
    ]}
  ]
}
